We go through 102 compounds from the supplement of paper PMC12578635.

± gives the standard deviation of the averaged measurements. The list shows a part of the results. Most values come without repeats; read them as rough.

The subject of the assay is RAW 264.7 macrophages infected with S. aureus JE2-lux. Kind of assay: host macrophage viability (CellTiter-Fluor) relative to DMSO vehicle; higher = more viable host cells. The following applies: 10 µM; treatment time 4 h; gentamicin 50 µg/ml.
For the compound `CN1CCN(n2c3c(c(SCC(=O)NCc4ccc5c(c4)OCO5)nc2=O)CCCC3)CC1`, the host macrophage viability is 109%.

As for `O=C(Nc1ccc(I)cc1)c1cc2cc(Cl)ccc2oc1=O`, the host macrophage viability came to 111%.

Take `CCCc1c(C)nc(N2CCN(c3ccc(F)cc3)CC2)[nH]c1=O`: the host macrophage viability amounted to 126%.

`CCOC(=O)c1ccc2c(c1)s/c(=N/C(=O)c1cccc(S(=O)(=O)CC)c1)n2CC`: the host macrophage viability was 115%.

`Cc1ccc2sc(N(CCCn3ccnc3)C(=O)c3ccco3)nc2c1C`: the host macrophage viability came out at 117%.

`Cn1c2ccc(F)cc2c2nnc(SCC(=O)NC3CCCCC3)nc21`: the host macrophage viability is 114%.

Take `O=c1c(SCc2ccc(Cl)cc2)nccn1-c1ccc(F)cc1`: the host macrophage viability came out at 146%.

On to `O=C(NCCc1nc2cccnc2n1C1CCCC1)NCc1ccco1`, for which the host macrophage viability came out at 109%.

On to `CCN(CC)C(=O)c1cnc2ccc(Cl)cc2c1O`, for which the host macrophage viability is 94.7%.

For `CCc1ccc(NC(=O)CCc2nc(-c3nn(-c4ccc(Cl)cc4)c(=O)n(C)c3=O)no2)cc1`, the host macrophage viability amounted to 95.1%.

For `COc1ccc(-c2cnc3c(-c4ccccc4)c(C)nn3c2N)cc1OC`, the host macrophage viability amounted to 120%.

Take `COc1ccc(OC)c(NC(=O)C2=C(C)NC(=S)NC2c2ccc(C(C)C)cc2)c1` (configuration not stated): the host macrophage viability turned out to be 110%.

For the compound `O=C1Nc2ccc(Br)cc2/C1=C1/SC(=S)N(C(Cc2ccccc2)C(=O)O)C1=O` (configuration not stated), the host macrophage viability is 100%.

Take `O=C(CN1C(=O)c2ccccc2S1(=O)=O)Nc1ccon1`: the host macrophage viability is 137%.

Regarding `CCc1cccc(C)c1NC(=O)CSc1nnc(-c2ccncc2)o1`, the host macrophage viability was 129%.

In the case of `Cc1cc(NC(=O)CSc2nnc(NC(=O)C3CC(=O)N(c4ccc(C)c(C)c4)C3)s2)no1` (configuration not stated), the host macrophage viability is 116%.

On to `Cc1nn2cc(C#N)c(-c3ccccc3)nc2c1-c1ccccc1`, for which the host macrophage viability stood at 102%.

On to `CCCCCn1c(SCC(=O)CC(=O)OCC)nc2cc(C(=O)NCc3ccco3)ccc2c1=O`, for which the host macrophage viability amounted to 118%.

In the case of `CCOc1ccccc1NCc1nc2nc(C)cc(C)n2n1`, the host macrophage viability was 117%.

Turning to `NC(=O)c1cc2cc(Cl)ccc2o/c1=N\c1cccc(C(F)(F)F)c1`, the host macrophage viability was 104 ± 3.8%.

Regarding `COCCn1c(=O)[nH]c2ccccc2/c1=N\C(=O)Nc1ccccc1C#N`, the host macrophage viability was found to be 114%.

For `COc1cccc(-c2cc(C(F)(F)F)n3ncc(C(=O)O)c3n2)c1`, the host macrophage viability was 110%.

In the case of `O=c1oc2cc([N+](=O)[O-])ccc2c2ccc([N+](=O)[O-])cc12`, the host macrophage viability was 127%.

As for `COc1ccc(S(=O)(=O)N2CCOCC2)cc1C(=O)NCc1ccc2c(c1)OCO2`, the host macrophage viability amounted to 106%.

Regarding `Cc1ccc(-n2nnc3c(SCC(=O)N4CCOCC4)ncnc32)cc1`, the host macrophage viability was 117 ± 11%.

As for `NC(=O)c1ccccc1NC(=O)CCn1c(=O)oc2ccccc21`, the host macrophage viability was determined as 121 ± 14%.

As for `CCOC(=O)c1csc(-n2nc3c(c2C(F)(F)F)CCCCC3)n1`, the host macrophage viability amounted to 84.7%.

Take `O=C(O)c1ccc2c(c1)C(=O)N(C(CC1=C[NH2+]C=N1)C(=O)[O-])C2=O` (configuration not stated): the host macrophage viability was determined as 121%.

Consider `CC(c1ccccc1)n1c(CN2CCCCC2)nc2ccccc21` (configuration not stated), for which the host macrophage viability turned out to be 122%.

With `Cc1ccc(C)c(CC(=O)Nc2nc3ccc4nc(C)sc4c3s2)c1`, the host macrophage viability was 117%.

Take `O=C(Nc1ccccc1F)N1CCC(c2nc3cc(Cl)ccc3[nH]2)CC1`: the host macrophage viability amounted to 122%.

Take `CCCCOC(=O)c1ccc(NC(=O)c2cc(-c3ccc4c(c3)OCCO4)on2)cc1`: the host macrophage viability amounted to 118%.

With `Cn1c(=O)[nH]c2cc(-c3noc(CNC(=O)c4ccccc4)n3)ccc21`, the host macrophage viability worked out at 107%.

Regarding `CC(=O)Nc1cccc(NC(=O)C(=O)Nc2ccc3c(c2)N(C(=O)C2CC2)CCC3)c1`, the host macrophage viability was 112%.

Consider `COc1ccc(C(=O)N2c3cc(CNC(=O)c4cc(CC(C)C)on4)ccc3CC2C)cc1` (configuration not stated), for which the host macrophage viability amounted to 96.1%.

In the case of `Cc1csc(SCc2cc(=O)c(OC(=O)Cc3ccc(F)cc3)co2)n1`, the host macrophage viability was determined as 109%.

In the case of `Cc1nc2ccccc2c(=O)n1-c1ccc(NS(=O)(=O)c2ccc3c(c2)OCCO3)cc1`, the host macrophage viability is 114%.

With `CCOc1ccc(N2CCn3c2nc2c3c(=O)n(CC(=O)O)c(=O)n2C)cc1`, the host macrophage viability was 140%.

With `O=C(CSC1=NS(=O)(=O)c2cc(F)ccc2N1)NCc1ccc2c(c1)OCO2`, the host macrophage viability was determined as 115%.

Turning to `COc1ccc(Cc2nnc3sc(SCC(=O)Nc4ccccc4)nn3c2=O)cc1OC`, the host macrophage viability came out at 122%.

For the compound `CCOc1ccc(CCNC(=O)CN2c3ccccc3S(=O)(=O)c3ccccc32)cc1OCC`, the host macrophage viability worked out at 109%.

In the case of `CCOC(=O)C1CCCN(c2ncnc3scc(-c4ccc(Cl)cc4)c23)C1` (configuration not stated), the host macrophage viability was 120%.

With `Cn1c(=O)c2c(nc3n2CC(C(C)(C)C)=NN3CCN2CCOCC2)n(C)c1=O`, the host macrophage viability came to 120%.

In the case of `COc1cccc(-c2noc(NCCC(C)C)n2)c1`, the host macrophage viability came out at 133%.

For `CCN(CC)C(=O)c1sc2nc3cc(C)c(C)cc3cc2c1N`, the host macrophage viability is 112%.

As to `CCOc1cc(-c2nc3ccc(C)cn3c2NCC2CCCO2)ccc1O` (configuration not stated), the host macrophage viability was 138%.

Consider `CCc1cc(Sc2nnc(NC(=O)Nc3cccc(Cl)c3)s2)n2ncnc2n1`, for which the host macrophage viability was found to be 116%.

Turning to `Cc1nc2ccc(NC(=S)NC(=O)CN3C(=O)CCC3=O)cc2s1`, the host macrophage viability worked out at 115 ± 13%.

For `CCOC(=O)c1sc2nc(C)nc(Oc3cccc(OC)c3)c2c1C`, the host macrophage viability amounted to 112%.

In the case of `COc1ccc2cc(C(=O)N3CCN(c4cc(C)nc(C)n4)CC3)n(C)c2c1`, the host macrophage viability came to 105%.

As for `CC1C(=O)N2CCCc3cc(NC(=O)C(=O)NCCC4=CCCCC4)cc1c32` (configuration not stated), the host macrophage viability was found to be 103%.

`O=C(Nc1ccc(F)cc1F)c1nnc(C2CCN(C(=O)C3CCCCC3)CC2)s1`: the host macrophage viability is 105%.

As to `O=C(Nc1cc(C(F)(F)F)cc(C(F)(F)F)c1)c1cnc2sccn2c1=O`, the host macrophage viability was determined as 112 ± 6.3%.

In the case of `CCOC(=O)c1cccc(NC(=O)CSc2nnc3ccc(C(=O)NCc4ccccc4)cn23)c1`, the host macrophage viability worked out at 95.4%.

As to `CC(=O)c1c(C)nn(CC(O)COc2ccc(C(=O)c3ccc(Cl)cc3)cc2)c1C` (configuration not stated), the host macrophage viability came out at 125%.

For the compound `Clc1cccc2sc(N3CCN(c4ccccc4)CC3)nc12`, the host macrophage viability came out at 118 ± 5%.

Take `CCOc1ccc(Oc2nc(C)nc3sc4c(c23)CCCC4)cc1`: the host macrophage viability was found to be 123%.

Turning to `CCS(=O)(=O)c1ccccc1C(=O)Nc1nc2c(s1)C(=O)CC(C)(C)C2`, the host macrophage viability came to 106%.

With `O=C(C1CCCN(c2nccnc2Oc2ccccc2)C1)N1CCN(c2ccccc2)CC1` (configuration not stated), the host macrophage viability was 118%.

`O=c1[nH]cc(S(=O)(=O)N2CCc3ccccc3C2)c(=O)[nH]1`: the host macrophage viability was 118%.

As for `Nc1c(C(=O)Nc2ccc(Br)cc2)sc2[nH]c(=O)c(C(=O)O)cc12`, the host macrophage viability worked out at 120%.

As to `Cc1ccc2c(c1)cc(C)c1nnc(SCC(=O)Nc3cc(C)on3)n12`, the host macrophage viability turned out to be 118%.

On to `Cc1noc(C)c1C(=O)Nc1ccccc1NC(=O)c1ccccn1`, for which the host macrophage viability came to 114%.

`CSc1nc2ccc3nc(NC(=O)CN4C(=O)c5ccccc5C4=O)sc3c2s1`: the host macrophage viability came to 95 ± 3.2%.

In the case of `CCc1noc2nc(C(=O)O)nc(N3CCOCC3)c12`, the host macrophage viability was determined as 95.5%.

Regarding `CC1(C)Cc2c(sc(NC(=O)c3ccc4ncsc4c3)c2C(N)=O)C(C)(C)N1`, the host macrophage viability stood at 125%.

In the case of `Cc1cccc(C2Oc3ccccc3C3CC(c4cccc(NS(C)(=O)=O)c4)=NN32)c1` (configuration not stated), the host macrophage viability came out at 121%.

As to `COCCNC(=O)c1nn(C)c2c1CCc1ccccc1-2`, the host macrophage viability is 121%.

For the compound `COc1ccc(Cl)c2sc(N3CCN(C(=O)c4cccc(N5C(=O)CCC5=O)c4)CC3)nc12`, the host macrophage viability was 104%.

In the case of `COc1cccc(C(=O)NCC(=O)N/N=C/c2cccs2)c1`, the host macrophage viability stood at 118%.

On to `CCc1cc2c(=O)n(-c3ccc(Cl)cc3)c(SCC(=O)c3cccs3)nc2s1`, for which the host macrophage viability amounted to 122%.

As to `Cc1cc(C(=O)NC(c2ccccc2)c2ccnn2C)c2cccc(Cl)c2n1` (configuration not stated), the host macrophage viability is 109%.

As for `O=C(CSC1=NS(=O)(=O)c2ccccc2N1)Nc1ccc2c(c1)OCCO2`, the host macrophage viability turned out to be 120%.

For the compound `Cc1nc(Nc2ccc(NS(=O)(=O)c3ccc(F)cc3F)cc2)cc(N(C)C)n1`, the host macrophage viability was 103%.

Take `Cc1ccc(C)c2[nH]c(=O)c(CCNC(=O)c3ccccc3F)cc12`: the host macrophage viability is 119%.

On to `CCOc1ccc2c(c1)sc1nc(-c3ccc(C(C)C)cc3)c(NCCOC)n12`, for which the host macrophage viability is 92.8%.

Turning to `CCCn1ncc(C)c1NC(=O)Cn1nc2c(C)cc3ccc(OC)cc3n2c1=O`, the host macrophage viability is 97.1%.

Turning to `CCOc1ccc(NC(=O)Cn2c(=O)c3cccnc3n(-c3ccccc3)c2=O)cc1`, the host macrophage viability was found to be 115%.

As for `Cc1c(S(=O)(=O)N2CCC(c3nnc(C(=O)Nc4ccccc4)s3)CC2)cnn1C(F)F`, the host macrophage viability was determined as 120%.

For `COc1ccc(CC(=O)N2CCN(c3c(C)n(C)c(=O)n(C)c3=O)CC2)cc1OC`, the host macrophage viability came to 115%.

In the case of `Cc1ccccc1-n1cc(-c2ccccc2)c2c(NC3CCCCC3)ncnc21`, the host macrophage viability was found to be 95.1%.

Take `O=C(c1cccnc1)N1CCc2c([nH]c3ccccc23)C1c1ccc(Cl)cc1` (configuration not stated): the host macrophage viability turned out to be 122%.

`O=S(=O)(c1cn(Cc2noc(-c3cc4cc(Cl)ccc4[nH]3)n2)cn1)N1CCOCC1`: the host macrophage viability is 97.9%.

For the compound `COc1ccc(/C=C2/SC(Nc3cccnc3)=NC2=O)cc1OC`, the host macrophage viability was 101 ± 5.1%.

Consider `COc1ccc2cc(C(N)=O)/c(=N/c3cccc(C)c3)oc2c1`, for which the host macrophage viability was 112%.

For `CCc1ccc(N(CC(=O)Nc2ccccc2OC)C2=NC3CS(=O)(=O)CC3S2)cc1` (configuration not stated), the host macrophage viability worked out at 123%.

For `COc1cc(C(=O)N2CCN=C2SCc2ccc([N+](=O)[O-])cc2)cc(OC)c1OC`, the host macrophage viability was determined as 91.5%.

For the compound `O=C(c1ccccc1F)N1CCc2c(nc(N3CCOCC3)[nH]c2=O)C1`, the host macrophage viability turned out to be 135%.

Take `Cc1ccc(C(=O)CSc2nccn(-c3ccc(Cl)cc3)c2=O)cc1`: the host macrophage viability was determined as 119%.

In the case of `COc1cc(OC)c(NC(=O)c2c(-c3ccccc3)nnc3ccc(C)cc23)cc1Cl`, the host macrophage viability turned out to be 108%.

Turning to `Cc1nc(OCC(=O)Nc2cc(F)ccc2F)c2c(C)c(C)oc2n1`, the host macrophage viability worked out at 125%.

`Cc1cccn2c(=O)nc(SCc3c(F)cccc3Cl)nc12`: the host macrophage viability turned out to be 113%.

For the compound `CCOC(=O)c1nc(NC(C)c2ccccc2)c2c(-c3ccc(F)cc3)noc2n1` (configuration not stated), the host macrophage viability came to 91.3%.

`NC(=O)c1nc(Nc2ccccc2)sc1NC(=O)Cc1cccs1`: the host macrophage viability worked out at 116%.

Take `O=C(CN1CCC(C(=O)c2ccc(F)cc2)CC1)Nc1cccc2ccccc12`: the host macrophage viability came to 108%.

With `COc1cc(-c2noc(CCCn3c(=O)[nH]c4cc5c(cc4c3=O)OCO5)n2)ccc1OC(C)C`, the host macrophage viability stood at 121%.

In the case of `Cc1nn(-c2ccc3nncn3n2)c2c1C(c1ccccc1OC1CCCC1)CC(=O)N2` (configuration not stated), the host macrophage viability was determined as 96.4%.

On to `Cc1oc2nc(SCC(=O)NC3CCCCC3)nc(N)c2c1C`, for which the host macrophage viability worked out at 105%.

For `COc1ccc(NS(=O)(=O)c2ccc(CCN3C(=O)c4cccc5cccc(c45)C3=O)cc2)cc1`, the host macrophage viability stood at 120%.

In the case of `Cc1cccc(Oc2ncnc(N)c2[N+](=O)[O-])c1C`, the host macrophage viability stood at 122%.

Take `CC(C)(C)C1=NN(CC(=O)Nc2nccs2)C(=O)c2cc3ccccc3n2C1`: the host macrophage viability worked out at 113%.

On to `COc1ccc2c(c1)c1nnc(SCC(=O)NC3CCCCC3C)nc1n2C` (configuration not stated), for which the host macrophage viability was 108%.
